Source: PubChem BioAssay AID1347075 (National Center for Advancing Translational Sciences (NCATS), 2019)
In all, about 400,000 compounds went through this assay and about 5,500 (1.4%) were called active. The inconclusive results got no clear call from the source; some entries with a clear call stand among them for comparison. Calls follow the shape of the dose curve; as a rule, active = well fitted cell-killing curve with a large enough effect; inconclusive = small, poorly fitted or top-dose-only effect, or effect the other way; inactive = flat fitted curve, though single readings scatter. A potency beside an inconclusive call is a rough fit, not a confirmed value.

experiment: qHTS assay for MDR1-selective chemotherapeutics: Primary screen using the parental adenocarcinoma cell KB-3-1; conditions: KB-3-1 viability, CellTiter-Glo ATP luminescence, 72 h; activity change, negative = cytotoxic: at 46.1 µM (top of the series); also: nearly all actives have a fitted effect of over 60% in size
How it was run: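 Parental KB-3-1 viability, qHTS format: 72 h compound exposure, 37 °C; CellTiter-Glo; media-only wells and DMSO plates as controls; concentration-effect fits on corrected data.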
% is scaled to controls: 0 for no effect and ±100 for the full control effect; potency is read from the fitted curve at half-maximal effect.

Row | SMILES | Potency | activity change, negative = cytotoxic
1 | OC(CN1CCCCC1)Cn1c2ccccc2c2cc(Br)ccc21 (configuration not stated) | inconclusive: 29.1 µM [cytotoxic, single point] | –
2 | Cc1ccc(-n2nc(C)c3c(C(=O)NCc4ccc(F)cc4)cc(C)nc32)cc1 | – | inactive: 4.36%
3 | Cc1ccc(CNC(=O)C(=O)NCCC2CCCCN2S(=O)(=O)c2cccs2)cc1 (configuration not stated) | – | inactive: -2.35%
4 | Cc1cccc(C)c1NC(=O)CN1C(=O)NC(C)(C2CC2)C1=O (configuration not stated) | – | inconclusive: 5.1%
5 | COc1ccc2oc(=O)c(-c3nc(C)cs3)cc2c1 | inconclusive: 29.1 µM [cytotoxic, single point] | –
6 | COc1cc(/C=C/C(=O)OCc2cn3cc(Cl)ccc3n2)ccc1O | inconclusive: 20.6 µM [cytotoxic, single point] | –
7 | CSc1nnc(-c2sc3cc(C(F)(F)F)cnc3c2-c2cccnc2)n1C | inconclusive: 29.1 µM [cytotoxic, single point] | –
8 | O=C(Nc1ccc(F)cc1F)c1cc2c(=O)n3ccccc3nc2s1 | – | inactive: -1.36%
9 | CC1CCCC(NC(=S)NC(=O)c2ccccc2Br)C1C (configuration not stated) | active: 25.9 µM | –
10 | COc1cc(C(=O)NCCc2ccc(F)cc2)ccc1OCC(=O)N1CCOCC1 | – | inactive: 6.95%
11 | Cc1ccc(-n2cnc3c(=O)[nH]cnc32)cc1[N+](=O)[O-] | inconclusive: 8.2 µM [cytotoxic, partial curve] | –
12 | CCCOC(c1ccccc1)(c1ccc(C(F)(F)F)cc1)C(Oc1nc(C)cc(C)n1)C(=O)O (configuration not stated) | inconclusive: 5.17 µM [cytotoxic, full curve] | –
13 | Cc1ccc(NC(=O)C2(C)CCN2C(=O)Cc2ccc(C(C)C)cc2)cc1 (configuration not stated) | inconclusive: 29.1 µM [cytotoxic, single point] | –
14 | Cc1ncoc1C(=O)N1CCCC(CCC(=O)NCc2ccccc2F)C1 (configuration not stated) | inconclusive: 20.6 µM [cytotoxic, single point] | –
15 | Cc1ccccc1C(=O)OCC(=O)N(C)c1ccccc1 | inconclusive: 29.1 µM [rising, single point] | –
16 | CCOC(=O)c1nn(C)c(=S)n(C)c1=O | inconclusive: 16.4 µM [rising, single point] | –
17 | S=c1[nH]nc(-c2cc(-c3ccco3)[nH]n2)n1-c1cccc2ccccc12 | inconclusive: 11.6 µM [rising, partial curve] | –
18 | CCCCC1(Cc2ccc(OC)c([N+](=O)[O-])c2)C(=O)N(c2ccccc2)N(c2ccccc2)C1=O | inconclusive: 35.5 µM [cytotoxic, single point] | –
19 | CC(C)CC1C(=O)N(Cc2cn(CC3CCCCC3)nn2)CCS(=O)(=O)N1Cc1ccc(-c2cccc(CO)c2)cc1 (configuration not stated) | inconclusive: 13 µM [cytotoxic, partial curve, poor fit] | –
20 | O=C(CN1C(=O)c2ccccc2S1(=O)=O)NC(Nc1ccccc1F)C(Cl)(Cl)Cl (configuration not stated) | inconclusive: 20.6 µM [rising, partial curve, poor fit] | –
21 | Cc1nn(Cc2c(Cl)cccc2Cl)c(C)c1NC(=O)c1cc(C(C)C)on1 | inconclusive: 29.1 µM [cytotoxic, single point] | –
22 | Cc1nc2oc3c(NCc4ccccc4)ncnc3c2c2c1COC(C)(C)C2 | – | inactive: 1.99%
23 | Nc1c(C(=O)C2CC2)sc2nc3c(cc12)CCC3 | – | inactive: -1.32%
24 | Cc1cc(NN)nc2ccc(Cl)cc12 | inconclusive: 9.2 µM [cytotoxic, partial curve] | –

Record cards, from the list above.
OC(CN1CCCCC1)Cn1c2ccccc2c2cc(Br)ccc21 (configuration not stated) as listed: Potency: inconclusive: 29.1 µM [cytotoxic, single point]
CCCCC1(Cc2ccc(OC)c([N+](=O)[O-])c2)C(=O)N(c2ccccc2)N(c2ccccc2)C1=O as listed: Potency: inconclusive: 35.5 µM [cytotoxic, single point]

3 compounds out of the list, ordered by number of heavy atoms, descending.
Row | SMILES | Potency | activity change, negative = cytotoxic
10 | COc1cc(C(=O)NCCc2ccc(F)cc2)ccc1OCC(=O)N1CCOCC1 | – | inactive: 6.95%
2 | Cc1ccc(-n2nc(C)c3c(C(=O)NCc4ccc(F)cc4)cc(C)nc32)cc1 | – | inactive: 4.36%
5 | COc1ccc2oc(=O)c(-c3nc(C)cs3)cc2c1 | inconclusive: 29.1 µM [cytotoxic, single point] | –

(more compounds)

Row | SMILES | Potency | activity change, negative = cytotoxic
25 | O=C1NC(c2ccccc2)(C(F)(F)F)SC2=NCCCN12 (configuration not stated) | – | inactive: -0.502%
26 | CCOC(=O)C1CCC(CNCc2ccc(Cl)cc2)CC1 (configuration not stated) | inconclusive: 0.184 µM [rising, full curve] | –
27 | Cc1cc(F)ccc1NC(=O)CN(C)S(=O)(=O)c1ccc(C(=O)N2CCOCC2)s1 | inconclusive: 0.13 µM [cytotoxic, full curve] | –
28 | COc1ccc(CCNC(=O)COc2ccc(S(=O)(=O)NC3CCCCC3)cc2Cl)cc1OC | inconclusive: 32.6 µM [cytotoxic, single point] | –
29 | COc1ccc2c3c1O[C@H]1C[C@@H](O)C=C[C@@]31CCN(C)C2 | inconclusive: 29.1 µM [cytotoxic, single point] | –
30 | CC(=O)Nc1cccc(NC(=O)CSc2ccc(-c3cccnc3)nn2)c1 | inconclusive: 25.9 µM [rising, single point] | –
31 | O=C(COc1ccc([N+](=O)[O-])cc1)Nc1cccc2cccnc12 | inconclusive: 20.6 µM [rising, single point] | –
32 | CCN(CC)S(=O)(=O)c1cc(NC(=O)CNc2cccc(S(=O)(=O)N3CCOCC3)c2)ccc1C | active: 8.2 µM | –
33 | O=C(NCCC(=O)N(Cc1ccco1)Cc1cccs1)c1ccccc1Cl | – | inactive: -2.42%
34 | CCN(CCNCC(O)COCc1ccc(Cl)cc1)c1cccc(C)c1 (configuration not stated) | – | inactive: -3.03%
35 | Cc1cc(=O)oc2cc(OCC3CC(c4ccccc4)=NO3)ccc12 (configuration not stated) | active: 7.31 µM | –
36 | Cc1c(C(=O)Nc2cccc(Cl)c2)c2ccccn2c1CCc1ccncc1 | – | inactive: -25.6%
37 | CN1C(=S)SC(N(O)C(=O)Nc2ccc(Cl)c(Cl)c2)C1(C)C (configuration not stated) | inconclusive: 29.1 µM [cytotoxic, single point] | –
38 | CCCOC(=O)CSC1=C(C#N)C(c2ccc3c(c2)OCO3)CC(=O)N1 (configuration not stated) | inconclusive: 25.9 µM [cytotoxic, single point] | –
39 | Cc1ccccc1-c1nc(CS(=O)(=O)CC(=O)Nc2cc(F)ccc2F)c(C)o1 | – | inactive: -5.03%
40 | O=C1C=CC(=Nc2ccc3c(c2)Cc2ccccc2-3)O1 | – | inactive: 0.28%
41 | O=C(/C=C/c1ccc2c(c1)OCO2)NCCSCc1c(Cl)cccc1Cl | – | inactive: -6.58%
42 | CN(C)c1ccc(C=c2c3ccccc3n3c2cc(-c2ccccc2)[n+]3C)cc1 | inconclusive: 0.731 µM [cytotoxic, full curve, poor fit] | –
43 | Nc1c(N(Cc2ccco2)C(=O)COc2ccc(Cl)cc2)c(=O)[nH]c(=O)n1Cc1ccccc1 | – | inactive: 15.3%
44 | COC(=O)C1=CN(c2ccc(C)cc2)C(N)=C(C#N)C1c1ccccc1F (configuration not stated) | inconclusive: 29.1 µM [cytotoxic, single point] | –
45 | N#CN=c1snc(-c2ccccc2)n1-c1ccc(Br)cc1 | inconclusive: 18.4 µM [cytotoxic, single point] | –
46 | COc1ccc(NC(=O)Cn2c(=O)oc3cc(S(=O)(=O)NCc4ccccc4)ccc32)c(OC)c1 | inconclusive: 3.26 µM [cytotoxic, full curve, poor fit] | –
47 | CCCCN(C)CCCNC(=O)Cn1ncc2c3ccccc3n(Cc3ccccc3F)c2c1=O | inconclusive: 18.4 µM [cytotoxic, single point] | –
48 | CSc1ccc(COC(=O)c2cc([N+](=O)[O-])ccc2N2CCOCC2)cc1 | active: 0.146 µM | –

Row | SMILES | Potency | activity change, negative = cytotoxic
49 | Cc1cc(C(=O)CCl)c(C)n1CC1COc2ccccc2O1 (configuration not stated) | inconclusive: 29.1 µM [cytotoxic, single point] | –
50 | COc1cc(NC(=O)C2CCN(S(=O)(=O)c3ccc4c(c3)oc(=O)n4C)CC2)cc(OC)c1 | – | inactive: 12.1%
51 | CCOC(=O)c1sc(=S)n(C)c1NC(=O)c1cccc(Br)c1 | inconclusive: 18.4 µM [cytotoxic, single point] | –
52 | CCN1CCN(C2=C(Cl)C(=O)N(Cc3ccccc3)C2=O)CC1 | inconclusive: 14.6 µM [cytotoxic, single point] | –
53 | CCCc1nc2ccc(Br)cn2c1Cc1ccccc1OC | inconclusive: 25.9 µM [cytotoxic, single point] | –
54 | Cc1cccc(C)c1-n1nnnc1C(c1ccnc2ccccc12)N1CCN(c2ccccc2F)CC1 (configuration not stated) | – | inconclusive: 3.26%
55 | [O-][n+]1c2cc(C(F)(F)F)ccc2c2n1CCN=C2c1ccc(Cl)cc1 | inconclusive: 29.1 µM [rising, single point] | –
56 | CC1CCc2c(C(=O)NCc3ccccn3)csc2C1 (configuration not stated) | – | inconclusive: -20.5%
57 | CC(C)CN(CC(C)C)c1nnc(NC(=O)Cn2c(=O)oc3ccccc32)s1 | – | inactive: 14.4%
58 | O=C(NCCN1CCC(n2c(=O)[nH]c3ccccc32)CC1)c1c(F)cccc1F | – | inconclusive: 0.292%
59 | CC(/C=C/c1cccc([N+](=O)[O-])c1)=N\NC(=O)c1ccncc1 | inconclusive: 29.1 µM [cytotoxic, single point] | –
60 | c1csc(Cn2c(-c3cccs3)nc3ccccc32)c1 | inconclusive: 20.6 µM [cytotoxic, single point] | –
61 | Cc1ccc(C(c2ccccc2)c2c(C)[nH]c3ccccc23)s1 (configuration not stated) | inconclusive: 18.4 µM [cytotoxic, single point] | –
62 | N#Cc1cnc2nc1NCCCCCCC2 | inconclusive: 14.6 µM [cytotoxic, partial curve] | –
63 | O=C1COc2ccc(C(=O)c3ccccc3)cc2CN1 | – | inactive: -5.45%
64 | O=C(/C=C/c1ccc(Cl)cc1)NCCSc1ccccc1 | – | inactive: 7.97%
65 | O=C(Nc1cnccn1)Nc1ccccc1Cl | inconclusive: 29.1 µM [cytotoxic, single point] | –
66 | COc1ccc(Cc2[nH]n3c(=O)cc(C(C)C)nc3c2-c2ccccc2)cc1 | active: 10.3 µM | –
67 | O=C(COC(=O)c1ccc(S(=O)(=O)N2CCOCC2)cc1)Nc1ccccc1OC(F)F | – | inactive: 2.75%
68 | Cc1ccc(CCC2C3=C(CCCC3=O)OC3=C2C(=O)CCC3)cc1 | – | inactive: 6.69%
69 | Cc1ccc(NC(=O)CCNC(=O)c2ccco2)cc1Cl | inconclusive: 29.1 µM [rising, single point] | –
70 | Cc1cc(C)c(Cn2c3ccccc3c3cnn(CC(=O)NCc4ccccn4)c(=O)c32)c(C)c1 | inconclusive: 23.1 µM [cytotoxic, partial curve, poor fit] | –
71 | Cc1csc2ncnc(NNC(=O)c3ccc(Cl)cc3)c12 | inconclusive: 14.6 µM [cytotoxic, partial curve] | –
72 | CCc1ccccc1NC(=O)C1CCCN1S(=O)(=O)c1ccc2c(c1)n(C)c(=O)c(=O)n2C (configuration not stated) | inconclusive: 29.1 µM [rising, single point] | –
